Results reported in PMC10917647.
These are yes or no findings as the source states them, for the method shown. Some entries that bind do so weakly or less than the wild type.

Sequences of proteins named here, by UniProt entry; tags and fusion partners are left off.
UniProt Q09725: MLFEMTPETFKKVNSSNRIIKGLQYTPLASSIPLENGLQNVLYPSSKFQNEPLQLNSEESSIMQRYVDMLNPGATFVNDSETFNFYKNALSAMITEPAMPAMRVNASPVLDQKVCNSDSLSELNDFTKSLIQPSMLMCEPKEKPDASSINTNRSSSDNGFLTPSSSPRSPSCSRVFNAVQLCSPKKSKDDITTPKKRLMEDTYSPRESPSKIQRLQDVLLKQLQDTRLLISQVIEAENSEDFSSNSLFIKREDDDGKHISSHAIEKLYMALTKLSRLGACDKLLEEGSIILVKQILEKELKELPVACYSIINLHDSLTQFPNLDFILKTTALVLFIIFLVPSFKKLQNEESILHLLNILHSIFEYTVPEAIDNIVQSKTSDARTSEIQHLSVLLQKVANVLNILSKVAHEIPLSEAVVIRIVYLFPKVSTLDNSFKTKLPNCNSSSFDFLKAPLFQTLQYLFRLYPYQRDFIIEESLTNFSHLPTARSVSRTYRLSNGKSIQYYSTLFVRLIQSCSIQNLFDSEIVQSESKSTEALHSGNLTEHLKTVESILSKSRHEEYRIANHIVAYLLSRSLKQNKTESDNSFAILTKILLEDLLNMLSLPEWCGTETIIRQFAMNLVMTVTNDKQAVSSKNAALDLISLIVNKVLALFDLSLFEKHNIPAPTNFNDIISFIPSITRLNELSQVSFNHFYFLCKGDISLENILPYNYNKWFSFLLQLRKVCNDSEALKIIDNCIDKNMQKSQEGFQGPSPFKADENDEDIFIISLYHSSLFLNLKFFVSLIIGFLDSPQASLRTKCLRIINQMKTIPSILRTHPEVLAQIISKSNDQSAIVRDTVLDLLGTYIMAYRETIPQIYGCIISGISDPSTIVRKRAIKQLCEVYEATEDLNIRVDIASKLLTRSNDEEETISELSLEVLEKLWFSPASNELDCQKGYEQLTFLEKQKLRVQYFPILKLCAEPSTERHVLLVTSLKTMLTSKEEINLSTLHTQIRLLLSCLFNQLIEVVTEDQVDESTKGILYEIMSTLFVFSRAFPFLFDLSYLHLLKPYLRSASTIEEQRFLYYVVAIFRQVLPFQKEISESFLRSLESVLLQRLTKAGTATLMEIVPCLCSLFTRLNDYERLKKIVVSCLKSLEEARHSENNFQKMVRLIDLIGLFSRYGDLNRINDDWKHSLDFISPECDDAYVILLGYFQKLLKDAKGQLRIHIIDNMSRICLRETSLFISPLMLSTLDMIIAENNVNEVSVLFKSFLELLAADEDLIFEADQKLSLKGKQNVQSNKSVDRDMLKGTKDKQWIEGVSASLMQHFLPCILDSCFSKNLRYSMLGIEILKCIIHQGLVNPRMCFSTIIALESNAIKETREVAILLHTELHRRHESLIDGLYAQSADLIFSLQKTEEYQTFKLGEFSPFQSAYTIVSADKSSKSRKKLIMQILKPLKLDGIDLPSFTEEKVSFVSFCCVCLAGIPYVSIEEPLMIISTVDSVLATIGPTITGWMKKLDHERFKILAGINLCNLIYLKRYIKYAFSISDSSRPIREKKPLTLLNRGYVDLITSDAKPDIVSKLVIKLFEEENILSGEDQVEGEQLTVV

Experiments:
Mis4 (S. pombe) = Mis4 (S. pombe) (UniProt Q09725); test: two-hybrid; Gal4 system (BD/Clontech); bait in pGBK-T7 (Y2HGold), prey in pGAD-T7 (Y187), mated diploids checked on SD-Trp-Leu-His-Ade plates
Pds5 (S. pombe) = molecular target: T1, Pds5 (S. pombe) (UniProt Q9HFF5); test: as above
T1 sequence: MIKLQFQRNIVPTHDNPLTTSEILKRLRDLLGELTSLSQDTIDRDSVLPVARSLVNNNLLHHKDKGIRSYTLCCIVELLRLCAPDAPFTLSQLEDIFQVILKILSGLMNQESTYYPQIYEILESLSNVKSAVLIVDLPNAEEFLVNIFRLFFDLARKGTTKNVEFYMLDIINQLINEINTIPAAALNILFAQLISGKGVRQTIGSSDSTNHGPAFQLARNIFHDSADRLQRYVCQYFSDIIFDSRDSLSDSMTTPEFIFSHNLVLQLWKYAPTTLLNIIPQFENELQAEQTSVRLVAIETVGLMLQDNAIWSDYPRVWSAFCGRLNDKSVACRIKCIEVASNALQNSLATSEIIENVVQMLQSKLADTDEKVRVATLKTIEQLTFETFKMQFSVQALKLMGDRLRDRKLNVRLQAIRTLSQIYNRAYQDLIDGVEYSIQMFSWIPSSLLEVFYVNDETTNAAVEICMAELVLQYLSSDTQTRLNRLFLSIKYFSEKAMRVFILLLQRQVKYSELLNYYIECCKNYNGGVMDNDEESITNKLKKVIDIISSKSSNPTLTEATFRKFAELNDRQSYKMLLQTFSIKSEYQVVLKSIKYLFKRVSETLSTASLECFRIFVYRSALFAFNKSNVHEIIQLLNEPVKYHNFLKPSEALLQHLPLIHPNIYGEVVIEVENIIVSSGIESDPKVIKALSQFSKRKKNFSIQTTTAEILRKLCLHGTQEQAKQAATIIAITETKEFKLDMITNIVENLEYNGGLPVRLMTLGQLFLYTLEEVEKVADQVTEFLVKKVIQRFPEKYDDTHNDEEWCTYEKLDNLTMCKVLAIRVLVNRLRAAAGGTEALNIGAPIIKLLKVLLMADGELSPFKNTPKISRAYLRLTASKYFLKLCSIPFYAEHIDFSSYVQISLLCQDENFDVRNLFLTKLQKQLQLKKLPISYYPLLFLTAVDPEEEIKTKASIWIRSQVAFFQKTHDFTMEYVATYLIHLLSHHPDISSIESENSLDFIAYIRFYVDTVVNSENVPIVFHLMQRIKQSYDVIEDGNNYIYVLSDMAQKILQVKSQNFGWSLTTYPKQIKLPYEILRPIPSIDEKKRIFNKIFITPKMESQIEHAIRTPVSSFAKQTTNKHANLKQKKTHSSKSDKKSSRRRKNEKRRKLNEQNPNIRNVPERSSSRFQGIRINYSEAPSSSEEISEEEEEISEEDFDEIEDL

B1: N-terminal fragment of Rec8 (1–245 a.a.) (domain or fragment, UniProt P36626 1-245)
chain: MFYNQDVLTKEKGGMGVIWLAATLGSKHSLRKLHKKDIMSVDIDEACDFVAFSPEPLALRLSSNLMIGVTRVWAHQYSFFHSQVSTLHLRVRKELDHFTSKPFKNIDIQNEQTNPKQLLLAEDPAFIPEVSLYDAFNLPSVDLHVDMSSFTQPKENPNISVLETLPDSTSYLINTSQNYSLRNNVSSFVYEDSRAFSTEEPLDFEFDENGDIQELTKGTINSDPSLQAASQHSNLGSVQREYNSE
binding (Mis4 (S. pombe)): binds weakly | binding (Pds5 (S. pombe)): binds

B2: Eso1 (protein, UniProt O42917 1-872)
chain: MELGKSKFSWKDLQYCDKAGTQNSPLRVVAHIDQDAFYAQVESVRLGLDHSVPLAVQQWQGLIAVNYAARAANISRHETVTEAKKKCPELCTAHVKTWKAGESEAKYHENPNPNYYKTCLDPYRHESVKILNIIKKHAPVVKKASIDECFIELTSDVKRIVLEEYPYLKIPSEDSNVALPQAPVLLWPAEFGMVIEEEVVDRTKEDYERDWDDVFLFYAAKIVKEIRDDIYLQLKYTCSAGVSFNPMLSKLVSSRNKPNKQTILTKNAIQDYLVSLKITDIRMLGGKFGEEIINLLGTDSIKDVWNMSMDFLIDKLGQTNGPLVWNLCHGIDNTEITTQVQIKSMLSAKNFSQQKVKSEEDAINWFQVFASDLRSRFLELEGMRRPKTICLTVVSRFLRKSRSSQIPMNVDISTQFIVEATSKLLRQLQQEFDVYPISNLSISFQNIIEVDRNSRGIEGFLKKSNDEIYMSTSVSPSIEGRAKLLNENMRENNSFELSSEKDIKSPKRLKRGKGKGIFDMLQQTAVSKPTENSADETYTCEECEQKITLSERNEHEDYHIALSISRKERYNNLVPPSHDKPKQVKPKTYGRKTGSKHYAPLSDETNNKRAFLDAFLGNGGNLTPNWKKQTPKAISNSSDNMTQLHLDLANSTVTCSECSMEYNSTSEEDILLHSRFHSRVLGGVTVSFQCSPIYRVNYGLSSDCIYSINSESSLIDQRKAEEALSFVNNELSSEPIETIGVDKYTTFLFISDKKCVGLLLAERISSAYIVDELELNNNNSTSSAVYIKNENLRKGFVLGISRIWVSASRRKQGIASLLLDNALKKFIYGYVISPAEVAFSQPSESGKQFIISWHRSRNNGSSKSLRYAVYES
binding (Pds5 (S. pombe)): binds
